Values from PubChem BioAssay AID504793 (Drosophila RNAi Screening Center, 2011)
The deposit covers about 23,000 reagents; this is a random part of those with a known target gene and a result. In the full data, 62 (0.27%) were called active. 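Calls come from follow-up tests whose scores are not deposited, so confirmed genes may have low counts here; counts are not normalised per plate.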 Raw values vary from plate to plate and are shown uncorrected. A plus sign joins genes that one reagent is predicted to hit. Reagent sequences are not shown.

Aim: 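Knock-downs allowing continued mitosis even though DNA is damaged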 (primary screen)
Cell system: Drosophila S2R+ cells
Reagent: long dsRNA against Drosophila genes, about 0.25 µg dsRNA per well
Duration: 4 days of dsRNA, then 4 hours of drug before read-out
Treatment: doxorubicin 0.5 µM for 4 hours to cause double-strand breaks, in cells also given a low, harmless dose of dsRNA against nbs to sensitise the assay
Detection: 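Mitotic index as the number of phospho-histone H3-positive cells in each well following doxorubicin, given as raw counts without normalisation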
Scale: mitotic cells: higher = more cells in mitosis, weaker G2 arrest
Rule for the call: 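a call needs confirmation in secondary tests, with other dsRNAs and a check of mitotic timing without damage, not just a high primary count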
Calls: active = confirmed in follow-up tests; inactive = not confirmed

predicted target | DRSC id | mitotic cells, replicate 1 | mitotic cells, replicate 2 | call
CG31780 + CG18477 | DRSC26122 | 10 | – | inactive
AANATL3 | DRSC02089 | 3 | – | inactive
Sgf11 | DRSC09987 | 6 | – | inactive
CG12123 | DRSC17818 | 7 | – | inactive
RecQ4 | DRSC11265 | 11 | – | inactive
RecQ4 | DRSC27616 | 40 | – | active
AANATL5 | DRSC05994 | 5 | – | inactive
CG5883 | DRSC10552 | 3 | – | inactive
CG33494 | DRSC13715 | 7 | – | inactive
CG15147 | DRSC02447 | 3 | 8 | inactive
CG15147 | DRSC02448 | 3 | – | inactive
CG15147 | DRSC27255 | 6 | – | inactive
RanBPM | DRSC06079 | 10 | – | inactive
RanBPM | DRSC25174 | 5 | – | inactive
PIG-Q | DRSC19138 | 12 | – | inactive
Sar1 | DRSC17049 | 11 | – | inactive
Sar1 | DRSC22115 | 9 | – | inactive
Sar1 | DRSC24141 | 2 | – | inactive
Gas41 | DRSC03156 | 7 | – | inactive
CG1889 | DRSC18195 | 9 | – | inactive
CG1889 | DRSC27433 | 4 | – | inactive
MESR4 | DRSC06901 | 4 | – | inactive
CG31600 | DRSC22541 | 7 | – | inactive
CG31600 | DRSC30096 | 1 | – | inactive
l(1)G0320 | DRSC18255 | 7 | – | inactive
CG4271 | DRSC00649 | 4 | – | inactive
sing | DRSC19530 | 7 | – | inactive
Ing3 | DRSC20002 | 5 | 19 | inactive
Ing3 | DRSC27959 | 5 | – | inactive
veil | DRSC06892 | 6 | – | inactive
Tm2 | DRSC16887 | 3 | – | inactive
Tm2 | DRSC26884 | 7 | – | inactive
Amy-d | DRSC05919 | 5 | – | inactive
sgl | DRSC21431 | 13 | – | inactive
sgl | DRSC29308 | 8 | – | inactive
CG32017 | DRSC17183 | 19 | – | inactive
CG32269 + CG32270 | DRSC08195 | 8 | – | inactive
Golgin97 | DRSC06895 | 8 | – | inactive
Tace | DRSC16340 | 14 | – | inactive
mRpL39 | DRSC10255 | 4 | – | inactive
Or85a | DRSC16764 | 6 | – | inactive
moi + Tgs1 | DRSC16371 | 9 | – | inactive
Ugt35A1 | DRSC16892 | 2 | – | inactive
Ugt35A1 | DRSC25438 | 8 | – | inactive
lncRNA:CR32690 | DRSC22219 | 5 | – | inactive
lncRNA:CR32690 | DRSC27561 | 8 | – | inactive
CG32645 | DRSC19683 | 7 | – | inactive
CG32645 | DRSC19889 | 9 | – | inactive
CG11298 | DRSC04100 | 14 | – | inactive
Sema1a | DRSC03433 | 5 | – | inactive
Vha100-4 | DRSC16282 | 11 | – | inactive
Vha100-4 | DRSC26139 | 8 | – | inactive
CG12061 | DRSC20715 | 4 | – | inactive
Rac2 | DRSC11262 | 5 | – | inactive
Rac2 | DRSC25086 | 9 | – | inactive
CG13727 | DRSC10055 | 6 | – | inactive
Tsp29Fa | DRSC03232 | 6 | – | inactive
Tsp29Fa | DRSC28522 | 5 | – | inactive
CG13744 | DRSC06415 | 6 | – | inactive
e(y)3 | DRSC19450 | 11 | – | inactive
e(y)3 | DRSC23698 | 14 | – | inactive
Mi-2 + Su(Tpl) | DRSC09640 | 17 | – | inactive
Agxt | DRSC18718 | – | – | inactive
Agxt | DRSC26115 | 2 | – | inactive
JMJD7 | DRSC09703 | 5 | – | inactive
CG12099 | DRSC08253 | 3 | – | inactive
CG34169 | DRSC01579 | 7 | – | inactive
Ufc1 | DRSC07156 | 10 | – | inactive
CG1421 | DRSC03707 | 7 | – | inactive
drm | DRSC00277 | 6 | – | inactive
Pgant4 | DRSC00717 | 8 | – | inactive
Pgant4 | DRSC29585 | 6 | – | inactive
CG46491 | DRSC06565 | 6 | – | inactive
CG46491 | DRSC06566 | 7 | – | inactive
S | DRSC24973 | 3 | – | inactive
mtsh | DRSC03070 | 1 | – | inactive
TrissinR | DRSC02334 | 6 | – | inactive
TrissinR | DRSC02335 | 9 | – | inactive
TrissinR | DRSC02336 | 1 | – | inactive
TrissinR | DRSC25084 | 4 | – | inactive
TrissinR | DRSC26283 | 5 | – | inactive
CG31189 | DRSC16198 | 8 | – | inactive
dsx | DRSC12649 | 14 | – | inactive
dsx | DRSC16934 | 8 | – | inactive
dsx | DRSC21495 | 10 | – | inactive
dsx | DRSC26707 | 3 | – | inactive
Stip1 | DRSC00756 | 4 | – | inactive
Octbeta1R | DRSC16134 | 15 | – | inactive
Octbeta1R | DRSC30030 | 12 | – | inactive
CG6901 | DRSC16129 | 4 | – | inactive
CG6901 | DRSC26477 | 6 | – | inactive
CG13108 | DRSC02206 | 4 | – | inactive
CG42340 | DRSC17458 | 2 | 8 | inactive
CG42340 | DRSC17841 | 4 | – | inactive
CG42340 | DRSC18305 | 8 | – | inactive
CG42340 | DRSC21619 | 11 | – | inactive
CG42340 | DRSC23657 | 2 | – | inactive
mod(mdg4) + pre-mod(mdg4)-Z + pre-mod(mdg4)-T | DRSC13477 | 17 | – | inactive
mod(mdg4) + pre-mod(mdg4)-Z + pre-mod(mdg4)-T | DRSC17001 | 8 | – | inactive
CCT6 | DRSC20095 | 150 | – | inactive
CG7564 | DRSC10880 | 6 | – | inactive
CG7564 | DRSC28225 | 15 | – | inactive
Cyp9b2 | DRSC07390 | 5 | – | inactive
Cyp9b2 | DRSC24835 | 4 | – | inactive
cbt | DRSC00655 | 5 | – | inactive
cbt | DRSC26117 | 5 | – | inactive
CG13054 | DRSC09935 | 2 | – | inactive
CG13054 | DRSC29594 | 9 | – | inactive
CG42709 | DRSC10277 | 14 | – | inactive
CG42709 | DRSC25693 | 5 | – | inactive
t | DRSC17815 | 16 | – | inactive
t | DRSC29460 | 3 | – | inactive
Idh | DRSC10779 | 4 | – | inactive
kz | DRSC18786 | – | – | inactive
pHCl-2 | DRSC14306 | 5 | – | inactive
Wdr59 | DRSC02771 | 3 | – | inactive
ab | DRSC23179 | – | – | inactive
Toll-7 | DRSC07563 | 2 | – | inactive
Toll-7 | DRSC29640 | 10 | – | inactive
Ekar | DRSC17161 | 19 | – | inactive
Ekar | DRSC24931 | 6 | – | inactive
drongo | DRSC00814 | 5 | – | inactive
drongo | DRSC25074 | 8 | – | inactive
CG13829 | DRSC14679 | 10 | – | inactive
Dcr-1 | DRSC15646 | 5 | – | inactive
Dcr-1 | DRSC27421 | 12 | – | inactive
Manf | DRSC14091 | 5 | – | inactive
Ype | DRSC20301 | 5 | – | inactive
ChAT | DRSC16609 | 13 | – | inactive
ChAT | DRSC22755 | 7 | – | inactive
CG32280 | DRSC08024 | 12 | – | inactive
Ent1 | DRSC00330 | 4 | – | inactive
Tmem131 | DRSC07154 | 8 | – | inactive
CG13070 | DRSC09953 | 13 | – | inactive
Rpt4 | DRSC18713 | 83 | – | inactive
Cpsf100 | DRSC14146 | 6 | – | inactive
Cpsf100 | DRSC28396 | 7 | – | inactive
CG7322 | DRSC20036 | 7 | – | inactive
CG7322 | DRSC26735 | 6 | – | inactive
CG13627 | DRSC14629 | 11 | – | inactive
